Experimental data from article PMC3561343.
No constants are given. Whether binding was seen depends on the method and setting. In cells and extracts the contact can be indirect. Some results given as binding are weak or reduced against the parent protein; the word gives no strength.

Chains of the proteins cited; added tags and fusions are not shown.
UniProt P31749: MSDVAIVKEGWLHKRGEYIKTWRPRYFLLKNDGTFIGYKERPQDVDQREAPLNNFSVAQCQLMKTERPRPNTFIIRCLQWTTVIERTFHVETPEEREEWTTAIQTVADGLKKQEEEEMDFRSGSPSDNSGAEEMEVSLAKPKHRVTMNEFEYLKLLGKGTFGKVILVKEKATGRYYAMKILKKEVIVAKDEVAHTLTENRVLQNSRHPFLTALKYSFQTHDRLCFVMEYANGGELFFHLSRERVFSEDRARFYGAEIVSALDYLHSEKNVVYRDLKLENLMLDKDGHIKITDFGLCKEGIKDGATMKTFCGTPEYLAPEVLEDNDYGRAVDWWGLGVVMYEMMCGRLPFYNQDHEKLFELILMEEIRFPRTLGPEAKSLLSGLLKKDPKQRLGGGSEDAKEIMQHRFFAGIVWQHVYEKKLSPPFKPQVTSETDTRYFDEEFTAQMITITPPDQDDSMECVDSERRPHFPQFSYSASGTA
UniProt P25963: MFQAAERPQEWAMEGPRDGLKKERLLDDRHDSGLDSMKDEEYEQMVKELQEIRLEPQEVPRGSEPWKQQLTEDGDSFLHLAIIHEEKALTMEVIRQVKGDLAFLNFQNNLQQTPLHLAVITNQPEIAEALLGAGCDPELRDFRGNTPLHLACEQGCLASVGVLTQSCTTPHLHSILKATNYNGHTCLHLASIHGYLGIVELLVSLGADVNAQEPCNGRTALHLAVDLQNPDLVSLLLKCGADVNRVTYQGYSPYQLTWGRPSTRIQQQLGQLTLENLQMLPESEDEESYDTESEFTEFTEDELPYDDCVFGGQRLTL
UniProt P38936: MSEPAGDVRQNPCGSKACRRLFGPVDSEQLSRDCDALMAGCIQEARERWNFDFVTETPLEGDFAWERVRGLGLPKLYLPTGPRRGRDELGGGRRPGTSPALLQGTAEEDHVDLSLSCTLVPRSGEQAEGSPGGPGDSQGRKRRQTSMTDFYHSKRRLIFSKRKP
UniProt P46527: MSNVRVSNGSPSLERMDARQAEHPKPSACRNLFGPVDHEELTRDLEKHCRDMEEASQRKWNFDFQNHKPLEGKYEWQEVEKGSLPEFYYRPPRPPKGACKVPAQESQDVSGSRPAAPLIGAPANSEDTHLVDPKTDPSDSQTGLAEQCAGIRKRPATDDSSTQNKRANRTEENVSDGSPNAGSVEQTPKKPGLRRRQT

Target: VCP-Flag (valosin-containing protein, wild type) (UniProt P55072)
Test: co-IP; AGS cells expressing VCP-Flag, Tri-mut VCP-Flag or empty vector, incubated with H. pylori (6 hr), with MG-132 or LY294002 pretreatment in some panels; lysate precipitated with anti-Flag M2 affinity gel 4 hr at 4°C; immunoblot of the precipitate

Molecule: Akt (from UniProt P31749 1-480)
- binding: binds

Molecule: IκBα (from UniProt P25963 1-317)
- binding: binds

Molecule: p21^Cip1 (from UniProt P38936 1-164)
- binding: binds

Molecule: p27^kip1 (from UniProt P46527 1-198)
- binding: binds

B1: Bcl-2-associated death promoter (BAD) (protein, UniProt Q92934 1-168)
chain: MFQIPEFEPSEQEDSSSAERGLGPSPAGDGPSGSGKHHRQAPGLLWDASHQQEQPTSSSHHGGAGAVEIRSRHSSYPAGTEDDEGMGEEPSPFRGRSRSAPPNLWAAQRYGRELRRMSDEFVDSFKKGLPRPKSAGTATQMRQSSSWTRVFQSWWDRNLGRGSSAPSQ
- binding: binds

B2: programmed cell death 4 (PDCD4) (protein, UniProt Q53EL6 1-469)
chain: MDVENEQILNVNPADPDNLSDSLFSGDEENAGTEEIKNEINGNWISASSINEARINAKAKRRLRKNSSRDSGRGDSVSDSGSDALRSGLTVPTSPKGRLLDRRSRSGKGRGLPKKGGAGGKGVWGTPGQVYDVEEVDVKDPNYDDDQENCVYETVVLPLDERAFEKTLTPIIQEYFEHGDTNEVAEMLRDLNLGEMKSGVPVLAVSLALEGKASHREMTSKLLSDLCGTVMSTTDVEKSFDKLLKDLPELALDTPRAPQLVGQFIARAVGDGILCNTYIDSYKGTVDCVQARAALDKATVLLSMSKGGKRKDSVWGSGGGQQSVNHLVKEIDMLLKEYLLSGDISEAEHCLKELEVPHFHHELVYEAIIMVLESTGESTFKMILDLLKSLWKSSTITVDQMKRGYERIYNEIPDINLDVPHSYSVLERFVEECFQAGIISKQLRDLCPSRGRKRFVSEGDGGRLKPESY
- binding: binds
